# Data reported in patent publication US6316414A (Dabur Research Foundation, priority 2000, dated 2001).
# Test: general procedure: Fmoc solid-phase peptide synthesis; Rink Amide; DCC or DIPCDI/HOBt or HBTU/HOBT and DIEA
# Conditions: whole synthesis, scale 0.5 g, one disulfide bridge, sequence written open
row,Substance,crude mass
1,D-Phe-Cys-Tyr-D-Trp-Lys-Ac5c-Cys-Thr-NH2,268 mg
2,D-Phe-Cys-Tyr-D-Trp-Lys-Ac5c-Pen-Thr-NH2,288 mg
3,D-Phe-Cys-Tyr-D-Trp-Orn-Ac5c-Cys-Thr-NH2,326 mg
4,D-Phe-Cys-Tyr-D-Trp-Orn-Ac5c-Pen-Thr-NH2,236 mg
5,D-Phe-Cys-Tyr-D-Trp-Orn-Aib-Cys-Thr-NH2,325 mg
6,D-Phe-Cys-Tyr-D-Trp-Orn-Aib-Pen-Thr-NH2,218 mg
7,D-Phe-Cys-Tyr-D-Trp-Orn-Deg-Cys-Thr-NH2,268 mg
8,D-Phe-Cys-Tyr-D-Trp-Orn-Dpg-Cys-Thr-NH2,339 mg
